From article doi:10.1101/2025.05.24.655882
These are yes or no findings as the source states them, for the method shown. Binding seen in cells or lysates may run through a third protein. Some binding calls cover weakened binding; strength is not graded here. Tags and fused reporters may be left off the sequences shown. Each block holds one molecule with its values, some of them ahead of it.

By UniProt entry, the sequences of proteins in these tests, tags left out.
UniProt P53855, whole entry: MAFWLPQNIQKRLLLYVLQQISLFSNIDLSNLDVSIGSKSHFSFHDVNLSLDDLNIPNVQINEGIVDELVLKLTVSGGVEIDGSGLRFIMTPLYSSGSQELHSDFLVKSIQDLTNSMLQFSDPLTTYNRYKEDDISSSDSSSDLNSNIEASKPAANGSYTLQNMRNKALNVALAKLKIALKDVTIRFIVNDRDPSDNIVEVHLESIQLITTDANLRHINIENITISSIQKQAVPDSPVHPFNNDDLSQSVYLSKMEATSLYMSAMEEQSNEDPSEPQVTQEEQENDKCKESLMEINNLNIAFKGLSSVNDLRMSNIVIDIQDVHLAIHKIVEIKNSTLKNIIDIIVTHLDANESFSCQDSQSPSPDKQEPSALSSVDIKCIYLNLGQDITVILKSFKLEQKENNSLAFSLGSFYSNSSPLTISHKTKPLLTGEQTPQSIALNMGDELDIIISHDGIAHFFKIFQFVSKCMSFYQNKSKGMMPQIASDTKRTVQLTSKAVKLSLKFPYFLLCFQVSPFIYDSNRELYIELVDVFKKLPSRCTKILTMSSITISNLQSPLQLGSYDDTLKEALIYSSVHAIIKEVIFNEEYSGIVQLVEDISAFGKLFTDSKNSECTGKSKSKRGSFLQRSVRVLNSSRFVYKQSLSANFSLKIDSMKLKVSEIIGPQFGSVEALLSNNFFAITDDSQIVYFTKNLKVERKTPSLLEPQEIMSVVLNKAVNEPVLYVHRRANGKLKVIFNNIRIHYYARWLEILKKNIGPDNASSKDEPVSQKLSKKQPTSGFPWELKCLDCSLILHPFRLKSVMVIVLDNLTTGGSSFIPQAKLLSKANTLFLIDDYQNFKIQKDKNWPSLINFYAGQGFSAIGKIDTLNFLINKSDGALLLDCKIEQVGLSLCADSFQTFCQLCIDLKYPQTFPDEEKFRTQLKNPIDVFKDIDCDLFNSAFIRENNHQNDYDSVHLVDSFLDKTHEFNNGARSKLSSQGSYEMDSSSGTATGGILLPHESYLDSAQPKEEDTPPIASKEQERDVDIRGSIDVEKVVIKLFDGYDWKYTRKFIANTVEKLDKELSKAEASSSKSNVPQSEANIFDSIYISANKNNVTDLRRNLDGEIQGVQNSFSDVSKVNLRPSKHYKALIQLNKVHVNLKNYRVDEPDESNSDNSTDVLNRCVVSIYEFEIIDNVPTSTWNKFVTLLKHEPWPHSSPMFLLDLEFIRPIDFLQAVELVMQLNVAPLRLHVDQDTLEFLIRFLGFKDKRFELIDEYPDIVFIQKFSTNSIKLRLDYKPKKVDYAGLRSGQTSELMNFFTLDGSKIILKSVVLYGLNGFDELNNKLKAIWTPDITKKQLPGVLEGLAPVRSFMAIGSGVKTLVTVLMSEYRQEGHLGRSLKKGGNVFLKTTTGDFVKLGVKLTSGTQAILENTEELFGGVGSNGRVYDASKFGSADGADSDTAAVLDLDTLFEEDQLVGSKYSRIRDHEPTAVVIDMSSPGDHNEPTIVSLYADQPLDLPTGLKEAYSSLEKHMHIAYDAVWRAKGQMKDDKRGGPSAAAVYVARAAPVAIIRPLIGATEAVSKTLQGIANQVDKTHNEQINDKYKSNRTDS

How the values were obtained:
[1] = molecular target: T1, Atg18–3xFLAG (wild type) (S. cerevisiae) (UniProt P43601); test: co-IP
T1 sequence: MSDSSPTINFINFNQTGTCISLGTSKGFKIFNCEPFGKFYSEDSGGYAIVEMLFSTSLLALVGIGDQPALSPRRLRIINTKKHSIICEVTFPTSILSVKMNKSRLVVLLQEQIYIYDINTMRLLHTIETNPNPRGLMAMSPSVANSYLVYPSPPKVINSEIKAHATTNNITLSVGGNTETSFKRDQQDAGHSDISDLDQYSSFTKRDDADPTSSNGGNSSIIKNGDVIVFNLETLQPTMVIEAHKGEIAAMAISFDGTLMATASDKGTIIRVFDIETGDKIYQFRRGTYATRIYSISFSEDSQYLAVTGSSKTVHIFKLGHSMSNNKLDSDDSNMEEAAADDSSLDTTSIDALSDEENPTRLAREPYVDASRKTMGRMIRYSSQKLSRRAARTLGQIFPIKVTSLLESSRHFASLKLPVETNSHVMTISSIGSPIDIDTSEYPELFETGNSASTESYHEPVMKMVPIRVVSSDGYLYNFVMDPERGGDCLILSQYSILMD

[2] = molecular target: Atg2–HA–EGFP (wild type) (S. cerevisiae) (UniProt P53855); test: co-IP

binding [1]: binds
Molecule: Atg2 (co-precipitated with Atg18–3xFLAG) (from UniProt P53855 1-1592)

binding [2]: binds
B1: Atg9 (protein, UniProt Q12142 1-997)
chain: MERDEYQLPNSHGKNTFLSRIFGLQSDEVNPSLNSQEMSNFPLPDIERGSSLLHSTNDSREDVDENDLRVPESDQGTSTEEEDEVDEEQVQAYAPQISDGLDGDHQLNSVTSKENVLETEKSNLERLVEGSTDDSVPKVGQLSSEEEEDNEFINNDGFDDDTPLFQKSKIHEFSSKKSNTIEDGKRPLFFRHILQNNRPQRDTQKLFTSSNAIHHDKDKSANNGPRNINGNQKHGTKYFGSATQPRFTGSPLNNTNRFTKLFPLRKPNLLSNISVLNNTPEDRINTLSVKERALWKWANVENLDIFLQDVYNYYLGNGFYCIILEKILNICTLLFVVFVSTYMGHCVDYSKLPTSHRVSDIIIDKCYSNSITGFTKFFLWMFYFFVILKIVQLYFDVQKLSELQNFYKYLLNISDDELQTLPWQNVIQQLMYLKDQNAMTANVVEVKAKNRIDAHDVANRIMRRENYLIALYNSDILNLSLPIPLFRTNVLTKTLEWNINLCVMGFVFNESGFIKQSILKPSQREFTREELQKRFMLAGFLNIILAPFLVTYFVLLYFFRYFNEYKTSPGSIGARQYTPIAEWKFREYNELYHIFKKRISLSTTLANKYVDQFPKEKTNLFLKFVSFICGSFVAILAFLTVFDPENFLNFEITSDRSVIFYITILGAIWSVSRNTITQEYHVFDPEETLKELYEYTHYLPKEWEGRYHKEEIKLEFCKLYNLRIVILLRELTSLMITPFVLWFSLPSSAGRIVDFFRENSEYVDGLGYVCKYAMFNMKNIDGEDTHSMDEDSLTKKIAVNGSHTLNSKRRSKFTAEDHSDKDLANNKMLQSYVYFMDDYSNSENLTGKYQLPAKKGYPNNEGDSFLNNKYSWRKQFQPGQKPELFRIGKHALGPGHNISPAIYSTRNPGKNWDNNNNGDDIKNGTNNATAKNDDNNGNNDHEYVLTESFLDSGAFPNHDVIDHNKMLNSNYNGNGILNKGGVLGLVKEYYKKSDVGR

binding [2]: binds
B2: Atg18 (co-precipitated with Atg2–HA–EGFP) (protein, UniProt P43601 1-500)
chain: T1 sequence
